No constants are given. Whether binding was seen depends on the method and setting. For part of these data: Binding seen in cells or lysates may run through a third protein. Some binding calls cover weakened binding; strength is not graded here. Blank lines part the entries; values can stand above or below the molecule they belong to.
What was measured:
[1] = biological target: T1, s-SHIP (stem-SHIP; SH2-lacking isoform of SH2-containing inositol 5'-phosphatase, approximately 104 kd) (mouse) (UniProt Q9ES52); experiment: immunoprecipitation of ES-TL1 lysate with anti-Grb2 polyclonal antibody, immunoblot with P2C6 (FIG. 6C)
T1 sequence (looked up): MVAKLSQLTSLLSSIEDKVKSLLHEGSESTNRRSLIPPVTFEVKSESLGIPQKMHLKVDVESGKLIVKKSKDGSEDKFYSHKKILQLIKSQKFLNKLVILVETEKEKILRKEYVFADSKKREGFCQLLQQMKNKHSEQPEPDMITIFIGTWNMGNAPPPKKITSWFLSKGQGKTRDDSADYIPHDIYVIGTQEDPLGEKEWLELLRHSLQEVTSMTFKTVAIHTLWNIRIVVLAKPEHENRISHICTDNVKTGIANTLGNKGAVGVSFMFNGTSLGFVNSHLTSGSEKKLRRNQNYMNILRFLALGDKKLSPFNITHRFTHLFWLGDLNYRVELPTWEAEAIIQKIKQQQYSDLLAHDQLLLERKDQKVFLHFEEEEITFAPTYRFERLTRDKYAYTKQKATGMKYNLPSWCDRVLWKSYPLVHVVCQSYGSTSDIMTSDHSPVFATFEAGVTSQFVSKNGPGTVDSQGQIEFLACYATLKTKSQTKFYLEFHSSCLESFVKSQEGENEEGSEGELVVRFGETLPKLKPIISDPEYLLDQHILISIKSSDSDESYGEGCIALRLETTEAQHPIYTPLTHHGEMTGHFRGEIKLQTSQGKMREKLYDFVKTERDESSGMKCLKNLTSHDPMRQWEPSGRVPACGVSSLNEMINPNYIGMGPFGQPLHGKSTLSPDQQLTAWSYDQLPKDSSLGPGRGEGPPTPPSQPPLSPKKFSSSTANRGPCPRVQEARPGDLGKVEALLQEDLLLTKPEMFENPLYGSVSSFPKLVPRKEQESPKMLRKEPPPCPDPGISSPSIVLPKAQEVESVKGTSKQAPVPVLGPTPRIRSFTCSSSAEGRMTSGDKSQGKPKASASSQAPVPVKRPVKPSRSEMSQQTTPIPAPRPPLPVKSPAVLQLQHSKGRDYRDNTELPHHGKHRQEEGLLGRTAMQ

Protein sequences, listed by entry. Tags and fused reporters are not part of them.
UniProt Q60631: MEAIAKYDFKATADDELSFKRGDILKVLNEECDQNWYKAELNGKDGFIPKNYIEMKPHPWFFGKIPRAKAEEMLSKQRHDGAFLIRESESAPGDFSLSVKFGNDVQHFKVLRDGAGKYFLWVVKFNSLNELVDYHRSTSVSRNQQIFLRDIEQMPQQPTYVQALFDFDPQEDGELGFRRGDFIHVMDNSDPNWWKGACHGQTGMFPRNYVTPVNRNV

[2] = biological target: T1, s-SHIP (stem-SHIP; SH2-lacking isoform of SH2-containing inositol 5'-phosphatase, approximately 104 kd) (mouse); experiment: reciprocal co-immunoprecipitation from ES cell lysate, immunoblot with P2C6
[3] = biological target: Grb2 adapter protein (not stated (endogenous in murine ES cells)) (UniProt Q60631); experiment: immunoprecipitation of ES-TL1 lysate with anti-SHIP antibody, immunoblot for Grb2 (FIG. 6B)
[4] = biological target: Grb2 adapter protein (not stated (endogenous in murine ES cells)) (UniProt Q60631); experiment: co-immunoprecipitation from ES cell lysate
[5] = biological target: Grb2 adapter protein (not stated (endogenous in murine ES cells)) (UniProt Q60631); experiment: co-immunoprecipitation from ES cell lysate, immunoblot
[6] = biological target: Grb2 adapter protein (not stated (endogenous in murine ES cells)) (UniProt Q60631); experiment: co-immunoprecipitation from ES cell lysate (FIG. 6)

binding [1]: binds
binding [2]: binds
Molecule: Grb2 adapter protein (from UniProt Q60631 1-217)

binding [3]: binds
binding [4]: binds
binding [5]: binds
binding [6]: binds
B1: s-SHIP (stem-SHIP; SH2-lacking isoform of SH2-containing inositol 5'-phosphatase, approximately 104 kd) (enzyme, mouse, UniProt Q9ES52-5 1-928, looked up)
chain: T1 sequence (looked up)
notes: also called 8-SHIP protein isoform; 104-kd and 97-kd proteins

Source: patent US20070224124A1 (UNIVERSITY OF SOUTH FLORIDA, published 2007)
